The source of these data is article PMC12005801, “Non‐Membrane Active Peptide Resensitizes MRSA to β‐Lactam Antibiotics and Inhibits S. aureus Virulence” (Advanced Science, 2025).

Protein sequences, listed by entry. Tags and fused reporters are not part of them. Residues count along the entry.
UniProt P00807, 25-281: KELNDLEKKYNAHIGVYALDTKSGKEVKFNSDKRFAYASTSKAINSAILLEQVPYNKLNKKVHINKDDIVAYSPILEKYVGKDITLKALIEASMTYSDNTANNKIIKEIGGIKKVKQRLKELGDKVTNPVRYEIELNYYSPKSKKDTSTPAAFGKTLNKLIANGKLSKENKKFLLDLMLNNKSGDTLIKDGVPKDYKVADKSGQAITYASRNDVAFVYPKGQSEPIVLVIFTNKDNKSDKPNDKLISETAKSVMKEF

The test system of series [1] is macrophage RAW264.7 cells.
Another series deals with HEK293T cells. The note with it: concentrations up to 256 µg mL^−1.
A further series relates to human red blood cells. The note with it: cited from earlier work.
The next series has as its target β‐lactamase (Staphylococcus aureus, UniProt P00807). The series is described as follows: biochemical.
The subject of another series is mammalian RBCs. The note with it: 1/2 MIC (8 µg mL^−1) GN1 combined with various concentrations of β‐lactam antibiotics.

By IC50 is commonly meant the point on the concentration scale where inhibition reaches its midpoint. For the molecule `CC[C@H](C)[C@H](NC(=O)[C@H](CCCCN)NC(=O)[C@H](CCCCN)NC(=O)[C@H](Cc1ccccc1)NC(=O)[C@@H](NC(=O)[C@H](CCCCN)NC(=O)[C@H](CCCCN)NC(=O)[C@@H](NC(=O)[C@H](CC(C)C)NC(=O)[C@H](CCCCN)NC(=O)[C@H](CCCNC(=N)N)NC(=O)[C@@H](NC(=O)[C@H](CCCNC(=N)N)NC(=O)[C@H](CCCCN)NC(=O)[C@H](C)N)[C@@H](C)CC)[C@@H](C)CC)[C@@H](C)CC)C(=O)O` [GN1], the “Cytotoxicity (cell death)” value (in series [1] (concentrations up to 256 µg mL^−1); in the series with HEK293T cells) was “no significant cell death” each time. The “Toxicity to human red blood cells” value in the series with human red blood cells is given as “non‐toxic”. In addition, half-maximal inhibition against β‐lactamase (IC50) required 2.26 µM. For the same molecule, in the series on mammalian RBCs, the “Hemolysis of mammalian erythrocytes” value is “did not cause hemolysis”.

With `CC[C@@H](C)[C@@H](NC(=O)[C@@H](CCCCN)NC(=O)[C@@H](CCCCN)NC(=O)[C@@H](Cc1ccccc1)NC(=O)[C@H](NC(=O)[C@@H](CCCCN)NC(=O)[C@@H](CCCCN)NC(=O)[C@H](NC(=O)[C@@H](CC(C)C)NC(=O)[C@@H](CCCCN)NC(=O)[C@@H](CCCNC(=N)N)NC(=O)[C@H](NC(=O)[C@@H](CCCNC(=N)N)NC(=O)[C@@H](CCCCN)NC(=O)[C@@H](C)N)[C@H](C)CC)[C@H](C)CC)[C@H](C)CC)C(=O)O` [D-GN1], in series [1] (64 µg mL^−1), the cell survival rate entry is given as “less than 20%”.
